Source: paper PMC11607453

Sequences of proteins named here, by UniProt entry; tags and fusion partners are left off.
UniProt P62258: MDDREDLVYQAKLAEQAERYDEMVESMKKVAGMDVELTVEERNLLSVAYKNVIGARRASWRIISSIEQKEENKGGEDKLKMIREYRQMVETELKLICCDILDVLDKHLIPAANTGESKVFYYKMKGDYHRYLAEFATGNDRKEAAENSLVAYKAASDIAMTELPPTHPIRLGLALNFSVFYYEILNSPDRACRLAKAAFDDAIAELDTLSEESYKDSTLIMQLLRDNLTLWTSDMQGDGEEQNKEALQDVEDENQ
UniProt Q86W92: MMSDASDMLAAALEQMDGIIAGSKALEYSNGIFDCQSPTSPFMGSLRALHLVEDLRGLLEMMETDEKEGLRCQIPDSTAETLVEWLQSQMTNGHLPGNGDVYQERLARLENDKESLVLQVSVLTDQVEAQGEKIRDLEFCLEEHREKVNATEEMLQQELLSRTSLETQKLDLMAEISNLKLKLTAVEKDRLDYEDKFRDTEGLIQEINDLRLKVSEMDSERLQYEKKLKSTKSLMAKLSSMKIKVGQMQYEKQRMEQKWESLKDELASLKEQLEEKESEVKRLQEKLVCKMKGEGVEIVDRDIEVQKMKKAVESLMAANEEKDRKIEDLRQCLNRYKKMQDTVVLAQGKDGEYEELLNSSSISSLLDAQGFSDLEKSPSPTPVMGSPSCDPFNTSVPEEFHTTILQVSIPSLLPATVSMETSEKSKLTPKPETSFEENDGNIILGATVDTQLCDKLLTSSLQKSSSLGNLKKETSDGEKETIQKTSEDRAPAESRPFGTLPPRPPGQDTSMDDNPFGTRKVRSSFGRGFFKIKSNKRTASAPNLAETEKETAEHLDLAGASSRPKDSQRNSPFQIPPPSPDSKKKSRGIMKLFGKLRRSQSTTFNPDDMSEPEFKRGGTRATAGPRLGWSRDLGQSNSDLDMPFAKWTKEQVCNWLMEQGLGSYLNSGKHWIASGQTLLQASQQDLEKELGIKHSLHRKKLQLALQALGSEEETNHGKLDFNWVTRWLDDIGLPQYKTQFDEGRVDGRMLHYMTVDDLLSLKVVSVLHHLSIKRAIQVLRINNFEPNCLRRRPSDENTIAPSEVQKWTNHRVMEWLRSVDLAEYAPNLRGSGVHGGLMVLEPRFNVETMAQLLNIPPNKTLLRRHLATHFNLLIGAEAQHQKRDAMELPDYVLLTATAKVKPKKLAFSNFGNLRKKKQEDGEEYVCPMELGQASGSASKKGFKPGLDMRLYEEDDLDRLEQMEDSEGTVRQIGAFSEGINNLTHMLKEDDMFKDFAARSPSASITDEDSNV
UniProt P31946: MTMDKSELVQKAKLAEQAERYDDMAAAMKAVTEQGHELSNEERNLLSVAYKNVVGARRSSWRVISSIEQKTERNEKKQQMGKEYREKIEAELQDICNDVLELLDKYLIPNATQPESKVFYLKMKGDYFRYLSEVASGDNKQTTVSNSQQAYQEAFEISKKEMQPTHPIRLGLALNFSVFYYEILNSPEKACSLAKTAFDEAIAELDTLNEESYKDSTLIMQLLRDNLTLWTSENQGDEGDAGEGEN
UniProt Q7Z4S6: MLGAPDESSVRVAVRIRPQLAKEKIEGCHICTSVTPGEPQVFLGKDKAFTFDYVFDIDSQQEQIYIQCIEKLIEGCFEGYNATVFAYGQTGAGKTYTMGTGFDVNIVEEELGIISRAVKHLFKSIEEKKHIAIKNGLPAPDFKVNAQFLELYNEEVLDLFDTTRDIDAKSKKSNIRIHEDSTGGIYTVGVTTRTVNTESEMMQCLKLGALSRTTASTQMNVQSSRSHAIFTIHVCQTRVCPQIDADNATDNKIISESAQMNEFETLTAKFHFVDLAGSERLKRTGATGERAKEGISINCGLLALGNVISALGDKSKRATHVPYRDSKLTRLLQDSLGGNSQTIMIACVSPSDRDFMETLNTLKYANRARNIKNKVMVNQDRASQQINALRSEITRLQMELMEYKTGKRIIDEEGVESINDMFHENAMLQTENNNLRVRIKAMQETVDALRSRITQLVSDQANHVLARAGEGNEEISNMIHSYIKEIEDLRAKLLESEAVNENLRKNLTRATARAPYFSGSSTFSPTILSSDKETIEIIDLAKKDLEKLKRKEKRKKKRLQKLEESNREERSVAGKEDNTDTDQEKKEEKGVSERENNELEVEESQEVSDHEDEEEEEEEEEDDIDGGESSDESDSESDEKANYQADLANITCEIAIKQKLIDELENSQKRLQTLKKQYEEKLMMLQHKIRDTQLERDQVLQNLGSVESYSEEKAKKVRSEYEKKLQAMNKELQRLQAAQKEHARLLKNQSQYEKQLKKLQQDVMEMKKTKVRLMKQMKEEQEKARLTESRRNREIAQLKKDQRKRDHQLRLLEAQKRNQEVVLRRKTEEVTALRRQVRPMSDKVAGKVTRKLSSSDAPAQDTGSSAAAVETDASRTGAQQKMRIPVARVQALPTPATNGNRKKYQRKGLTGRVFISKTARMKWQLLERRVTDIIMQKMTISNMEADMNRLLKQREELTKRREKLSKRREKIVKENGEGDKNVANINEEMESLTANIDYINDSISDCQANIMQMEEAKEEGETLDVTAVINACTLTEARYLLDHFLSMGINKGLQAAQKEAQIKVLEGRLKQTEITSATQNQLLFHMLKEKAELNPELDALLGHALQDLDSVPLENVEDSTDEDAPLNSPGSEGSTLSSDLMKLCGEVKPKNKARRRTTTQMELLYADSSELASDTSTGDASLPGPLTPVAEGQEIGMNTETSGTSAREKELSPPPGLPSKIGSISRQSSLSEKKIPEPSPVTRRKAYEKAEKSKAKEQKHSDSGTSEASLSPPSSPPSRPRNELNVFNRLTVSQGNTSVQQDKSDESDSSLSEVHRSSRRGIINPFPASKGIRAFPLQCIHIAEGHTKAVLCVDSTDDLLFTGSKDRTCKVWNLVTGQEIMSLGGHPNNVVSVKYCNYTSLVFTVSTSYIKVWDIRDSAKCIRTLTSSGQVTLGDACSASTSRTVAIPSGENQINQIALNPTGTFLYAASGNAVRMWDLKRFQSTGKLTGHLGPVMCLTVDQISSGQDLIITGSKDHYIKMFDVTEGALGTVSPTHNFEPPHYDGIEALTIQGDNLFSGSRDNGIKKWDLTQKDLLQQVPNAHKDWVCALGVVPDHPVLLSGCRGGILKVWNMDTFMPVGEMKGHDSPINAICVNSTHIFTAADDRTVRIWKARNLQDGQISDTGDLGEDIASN

B1: NOS1AP-splice isoform chromosome 1 open reading frame 226 (C1orf226), as identified by MS in MCF7 cells (protein, UniProt A1L170 1-272)
chain: MFENLNTALTPKLQASRSFPHLSKPVAPGSAPLGSGEPGGPGLWVGSSQHLKNLGKAMGAKVNDFLRRKEPSSLGSVGVTEINKTAGAQLASGTDAAPEAWLEDERSVLQETFPRLDPPPPITRKRTPRALKTTQDMLISSQPVLSSLEYGTEPSPGQAQDSAPTAQPDVPADASQPEATMEREERGKVLPNGEVSLSVPDLIHKDSQDESKLKMTECRRASSPSLIERNGFKLSLSPISLAESWEDGSPPPQARTSSLDNEGPHPDLLSFE
B2: C1orf226, as identified by MS in HEK293T cells (protein, UniProt A1L170 1-272)
chain: B1 chain
B3: YWHAQ (14-3-3 protein) (protein, UniProt P27348 1-245)
chain: MEKTELIQKAKLAEQAERYDDMATCMKAVTEQGAELSNEERNLLSVAYKNVVGGRRSAWRVISSIEQKTDTSDKKLQLIKDYREKVESELRSICTTVLELLDKYLIANATNPESKVFYLKMKGDYFRYLAEVACGDDRKQTIDNSQGAYQEAFDISKKEMQPTHPIRLGLALNFSVFYYEILNNPELACTLAKTAFDEAIAELDTLNEDSYKDSTLIMQLLRDNLTLWTSDSAGEECDAAEGAEN

Assays:
[1] = target: T1, green fluorescent protein (GFP)-tagged KANK1 (KANK1-GFP), expressed in MCF7 cells (UniProt Q14678); assay: affinity purification with mass spectrometry; anti-GFP IP from lysates of MCF7 cells expressing the GFP-tagged bait (KANK1-GFP or GFP-NOS1APc; GFP-only as control), on-beads digestion, label-free quantification, 3 biological replicates
T1 sequence: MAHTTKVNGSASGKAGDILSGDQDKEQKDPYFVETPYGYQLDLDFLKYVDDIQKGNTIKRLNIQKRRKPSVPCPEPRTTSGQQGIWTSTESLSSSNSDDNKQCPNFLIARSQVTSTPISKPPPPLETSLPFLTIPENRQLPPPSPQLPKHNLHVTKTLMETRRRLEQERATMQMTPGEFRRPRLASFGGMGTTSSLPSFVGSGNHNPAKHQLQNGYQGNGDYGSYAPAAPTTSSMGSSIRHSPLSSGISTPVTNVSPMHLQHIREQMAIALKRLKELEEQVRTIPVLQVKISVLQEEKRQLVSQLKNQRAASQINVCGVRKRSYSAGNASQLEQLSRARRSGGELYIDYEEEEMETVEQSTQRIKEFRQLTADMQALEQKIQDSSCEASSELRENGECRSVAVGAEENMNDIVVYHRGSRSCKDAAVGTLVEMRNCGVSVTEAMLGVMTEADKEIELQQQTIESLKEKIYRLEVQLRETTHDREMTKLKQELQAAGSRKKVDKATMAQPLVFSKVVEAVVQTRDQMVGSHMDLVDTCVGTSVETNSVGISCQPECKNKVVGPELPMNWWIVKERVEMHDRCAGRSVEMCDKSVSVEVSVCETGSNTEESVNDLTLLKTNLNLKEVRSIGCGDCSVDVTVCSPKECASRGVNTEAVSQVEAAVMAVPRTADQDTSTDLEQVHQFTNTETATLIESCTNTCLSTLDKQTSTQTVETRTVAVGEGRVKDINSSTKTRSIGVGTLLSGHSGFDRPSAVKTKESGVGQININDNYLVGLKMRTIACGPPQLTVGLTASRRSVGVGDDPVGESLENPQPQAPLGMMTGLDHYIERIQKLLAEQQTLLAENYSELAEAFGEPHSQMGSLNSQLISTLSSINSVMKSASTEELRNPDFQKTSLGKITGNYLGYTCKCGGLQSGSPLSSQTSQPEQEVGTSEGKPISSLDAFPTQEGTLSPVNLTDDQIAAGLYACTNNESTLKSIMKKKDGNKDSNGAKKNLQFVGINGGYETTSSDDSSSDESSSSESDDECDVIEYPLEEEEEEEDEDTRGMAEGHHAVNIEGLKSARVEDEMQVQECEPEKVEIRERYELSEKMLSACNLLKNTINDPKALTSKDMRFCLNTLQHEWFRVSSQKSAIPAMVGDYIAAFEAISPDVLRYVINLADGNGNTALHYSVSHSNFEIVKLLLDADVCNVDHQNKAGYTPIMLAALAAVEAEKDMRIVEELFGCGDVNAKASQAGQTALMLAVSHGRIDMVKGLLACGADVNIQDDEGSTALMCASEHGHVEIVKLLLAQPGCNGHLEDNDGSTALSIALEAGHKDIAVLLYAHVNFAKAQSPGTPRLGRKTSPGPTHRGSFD

[2] = target: T2, GFP-tagged KANK1 (KANK1-GFP), expressed in HEK293T cells (UniProt Q14678); assay: affinity purification with mass spectrometry; anti-GFP IP and MS in HEK293T cells (Supplementary Fig. 6a)
T2 sequence: T1 sequence

Molecule | binding [1] | binding [2]
YWHAE (14-3-3 protein) (from UniProt P62258 1-255) | binds | 
PPFIBP1 (Liprinβ1) (from UniProt Q86W92 1-1011) | binds | 
YWHAB (14-3-3 protein) (from UniProt P31946 1-246) | binds | 
KIF21A (from UniProt Q7Z4S6 1-1674) | binds | 
B1 | binds | 
B2 |  | binds
B3 | binds | 

These are yes or no findings as the source states them, for the method shown. Binding seen in cells or lysates may run through a third protein. A yes stands for co-enrichment or nearness to the bait. Other partners may have been found. Where a sequence is shown, tags or fusion partners need not be part of it.
